Source: PubChem BioAssay AID540276 (National Center for Advancing Translational Sciences (NCATS), 2011)
About 5,400 (1.8%) of roughly 300,000 compounds were called active. This list was built around the results that the source calls inconclusive (neither active nor inactive); the mix of calls is not that of the screen. The call rests on the fitted dose curve; tested in HEK293 cells. Where the call is inconclusive, the potency comes from a doubtful curve fit.

Assay: qHTS for inhibitors of binding or entry into cells for Marburg Virus
Conditions: Marburg virus pseudotyped entry inhibition, cell reporter; series mostly up to 37.8 µM
Potency means the concentration at half of the fitted maximal effect.

| Compound | Potency |
| --- | --- |
| COc1ccc(CNC(=O)COC(=O)c2cc3ccccc3o2)cc1 | inconclusive: 31.6 µM [activator, single point] |
| CCOCCCN1CN(S(=O)(=O)c2ccc(Cl)cc2)c2nc3ccccc3nc21 | inactive |
| CCC(=O)N1c2ccc(S(=O)(=O)N(CCO)Cc3ccccc3)cc2CC1C (configuration not stated) | inconclusive: 35.5 µM [inhibitor, single point] |
| Cc1ccc(C)c(OCCn2cc(/C=C(/C#N)C(=O)NCC3CCCO3)c3ccccc32)c1 (configuration not stated) | inconclusive: 0.126 µM [inhibitor, full curve, poor fit] |
| NC(=O)c1nsc(C(=O)N(c2ccccc2)C(C(=O)NCC2CCCO2)c2ccc(F)cc2)c1N (configuration not stated) | inconclusive: 17.8 µM [inhibitor, single point] |
| COc1ccc(/C=N/NC(=O)c2ccccc2O)cc1CN1CCOCC1 | inactive |
| COC1CC(C)C(OC)c2cc(O)cc(c2O)NC(=O)C(C)=CC=CC(C)C(OC(N)=O)C(C)=CC(C)C1OC (configuration not stated) | active: 3.55 µM |
| CN(C)C(C)(C)C#CCCCCC#CC(C)(C)N(C)C | inconclusive: 10.3 µM [inhibitor, partial curve] |
| Cc1c(Br)c([N+](=O)[O-])nn1CC(=O)N1CCc2ccccc21 | inactive |
| O=C(Nc1cccc(O)c1)c1cc(-c2cccs2)on1 | inconclusive: 35.5 µM [inhibitor, single point] |
| C=CCn1c(NCc2c[nH]c3ccccc23)nc2ccccc21 | inconclusive: 35.5 µM [inhibitor, single point] |
| CC(=O)N1C(Nc2ccc(Cl)cc2)CCN1c1ccccc1 (configuration not stated) | inconclusive: 0.0041 µM [inhibitor, full curve, poor fit] |
| S=C(Nc1ccccc1)Nc1nc2ccccc2n1CCOc1ccc(Cl)cc1 | inconclusive: 35.5 µM [inhibitor, single point] |
| CCCS(=O)(=O)c1c(S(=O)(=O)CCC)c2c(N)cccn2c1C(=O)c1ccccc1 | inconclusive: 11.6 µM [inhibitor, partial curve, poor fit] |
| COc1ccc(OC)c(S(=O)(=O)Nc2cc3c(C(C)=O)c(C)oc3c3ccccc23)c1 | inconclusive: 12.6 µM [inhibitor, partial curve, poor fit] |
| CC(/C=C/c1ccccc1F)=N\NC(=O)c1ccc(Cl)cc1 | inactive |
| O=C1CC(N2CCN(c3ccccn3)CC2)C(=O)N1c1ccc(F)cc1 (configuration not stated) | inconclusive: 6.31 µM [inhibitor, single point] |
| Cc1noc2ncnc(SCc3ccc(C(F)(F)F)cc3)c12 | inconclusive: 8.91 µM [inhibitor, partial curve, poor fit] |
| CCC(C)NC(=O)Nc1ccc(F)c(Cl)c1 (configuration not stated) | inactive |
| O=C(Nc1cccc(F)c1)c1ccc2c(c1)OCCO2 | inconclusive: 14.1 µM [inhibitor, single point] |
| CCN(Cc1ccccc1)C(c1cccc(C#N)c1)c1nnnn1C(C)(C)C (configuration not stated) | inconclusive: 0.103 µM [inhibitor, full curve, poor fit] |
| NC(=O)c1nsc(C(=O)N(Cc2ccc(F)cc2)C(C(=O)NC2CCCC2)c2ccco2)c1N (configuration not stated) | inconclusive: 0.562 µM [inhibitor, full curve, poor fit] |
| COc1ccccc1N1CCN(CC(=O)Nc2ccnn2C2CCCC2)CC1 | inconclusive: 0.891 µM [inhibitor, full curve, poor fit] |

| Compound | Potency |
| --- | --- |
| N#Cc1ccc(OCc2cccc(S(=O)(=O)N3CCOCC3)c2)cc1 | inconclusive: 7.08 µM [inhibitor, partial curve, poor fit] |
| N#CC1=C2SCN(c3ccccc3)CN2C(=O)CC1c1cccs1 (configuration not stated) | inactive |
| O=C(Nc1ccc(F)cc1F)NC1CCN(S(=O)(=O)c2ccc(F)cc2)CC1 | inactive |
| COc1ccc(CNCCC(c2ccc(OC)cc2)c2ccccc2OC)cc1 (configuration not stated) | inconclusive: 10 µM [inhibitor, partial curve, poor fit] |
| Cc1ccc(C(=O)NN(C)c2nc3ccccc3nc2C(F)(F)F)cc1 | inconclusive: 6.31 µM [inhibitor, single point] |
| COc1ccc2c(c1)CCc1cnoc1-2 | inactive |
| O=C(O)c1ccccc1SCc1ccc2c(c1)OCO2 | inconclusive: 0.316 µM [inhibitor, partial curve, poor fit] |
| COn1c(-c2ccc(Cl)cc2)nc2ccc(Cl)cc21 | inconclusive: 16.4 µM [activator, single point] |
| CS(=O)(=O)N(CC(=O)N1CCCCCC1)c1ccc2c(c1)OCCO2 | inactive |
| O=C(OCC(=O)N1CCC(Cc2ccccc2)CC1)c1cc(Cl)ccc1O | inconclusive: 35.5 µM [activator, single point] |
| N#Cc1cc2cc3c(cc2nc1SCC(=O)N1CCCC1)OCCO3 | inconclusive: 6.31 µM [activator, full curve, poor fit] |
| O=C(CSc1nc2ccccc2s1)N1N=C(c2cccs2)CC1c1ccc(F)cc1 (configuration not stated) | inconclusive: 11.2 µM [inhibitor, partial curve, poor fit] |
| O=c1c2ccccc2nc(-c2ccccc2)n1-c1ccccc1O | inactive |
| COc1ccc(-c2csc(NC(=O)c3ccccc3S(C)(=O)=O)n2)cc1 | inconclusive: 35.5 µM [inhibitor, single point] |
| CC(=O)N1CCN(c2ccc(NCc3cccs3)cc2)CC1 | inactive |
| CC(=O)Nc1cccc(NC(=O)/C=C/c2ccc(S(=O)(=O)N3CCOCC3)cc2)c1 | inconclusive: 3.16 µM [inhibitor, single point] |
| Cc1ccc(NC(=O)C2CCCN(S(=O)(=O)c3c(C)noc3C)C2)cc1F (configuration not stated) | inactive |
| COC(=O)C1=CN(c2ccc(OC)cc2)C=C(C(=O)OC)C1c1cc(OC)c(OC)cc1OC | inactive |
| CC(=O)Nc1ccc(/C(C)=N/Nc2nc(N3CCOCC3)nc(N3CCOCC3)n2)cc1 | inconclusive: 11.2 µM [inhibitor, single point] |
| CN(C)c1cc2c(Nc3ccc4c(cnn4Cc4ccccc4)c3)ncnc2cn1 | active: 8.91 µM |
| S=C(NCCCN1CCOCC1)Nc1ccc(Nc2ccccc2)cc1 | inconclusive: 35.5 µM [inhibitor, single point] |
| Cc1ccc(-c2[nH]ncc2C(=O)c2ccc(Br)cc2)c(O)c1 | inconclusive: 11.2 µM [inhibitor, partial curve, poor fit] |
| Cc1ccc(-c2nc(-c3cccnc3)sc2CC(=O)Nc2ccc(C)c(Cl)c2)cc1 | inconclusive: 0.184 µM [inhibitor, full curve, poor fit] |

4 entries picked at random from those above, as already listed:

| Compound | Potency |
| --- | --- |
| COc1ccc2c(c1)CCc1cnoc1-2 | inactive |
| Cc1ccc(-c2nc(-c3cccnc3)sc2CC(=O)Nc2ccc(C)c(Cl)c2)cc1 | inconclusive: 0.184 µM [inhibitor, full curve, poor fit] |
| O=C(O)c1ccccc1SCc1ccc2c(c1)OCO2 | inconclusive: 0.316 µM [inhibitor, partial curve, poor fit] |
| COC(=O)C1=CN(c2ccc(OC)cc2)C=C(C(=O)OC)C1c1cc(OC)c(OC)cc1OC | inactive |

Additional records follow.

| Compound | Potency |
| --- | --- |
| Cn1c(SCC(=O)N2CCOCC2)nnc1-c1ccc2ncccc2c1 | inconclusive: 14.1 µM [activator, partial curve, poor fit] |
| CCN(Cc1ccc(OC)c(F)c1)C(=O)CCl | inconclusive: 25.1 µM [inhibitor, single point] |
| COc1ccc2cc(CN(CC3CCCO3)C(=S)NCc3ccco3)c(=O)[nH]c2c1 (configuration not stated) | inactive |
| COc1ccccc1C(=O)Nc1ccc(S(=O)(=O)N2CCc3ccccc32)cc1 | inconclusive: 23.1 µM [inhibitor, single point] |
| COc1ccc(CCNC(=O)CSc2nc(=O)n3cc(C)ccc3n2)cc1OC | inconclusive: 5.62 µM [activator, single point] |
| CCc1nnc2c(NCCc3ccc(OC)c(OC)c3)nc3ccccc3n12 | inconclusive: 20 µM [activator, single point] |
| CCSc1nc(C)cc(Oc2ccc(=O)n(C)n2)n1 | inconclusive: 0.58 µM [activator, partial curve, poor fit] |
| Cc1cc(C)c(C)c(S(=O)(=O)NC2CCCCC2)c1C | inconclusive: 35.5 µM [inhibitor, single point] |
| CN1CCN(c2ccc([N+](=O)[O-])cc2/C=N/NC(=O)c2ccc(F)cc2)CC1 | inconclusive: 35.5 µM [inhibitor, single point] |
| COc1cc(/C=C(/C#N)c2ccc(C)cc2)ccc1Oc1ccc([N+](=O)[O-])cn1 | inactive |
| Cc1ccc(C)c(S(=O)(=O)N2CCN(C(=O)CNC(=O)c3ccc4ccccc4c3)CC2)c1 | inconclusive: 12.6 µM [inhibitor, single point] |
| COc1ccc(NS(=O)(=O)c2cc(NC(=O)c3ccco3)ccc2N2CCCC2)cc1 | inconclusive: 6.31 µM [activator, single point] |
| COc1ccc(CCNC(C)CCc2ccc(OC)cc2)cc1 (configuration not stated) | inconclusive: 14.6 µM [inhibitor, partial curve, poor fit] |
| O=C(CNC(=O)c1ccc(Br)o1)Nc1cccc(-c2cnc3ccccc3n2)c1 | inconclusive: 14.1 µM [inhibitor, single point] |
| COc1ccccc1CNC(=O)C(C)n1nc(C)n2c(cc3occc32)c1=O (configuration not stated) | inconclusive: 0.562 µM [inhibitor, full curve, poor fit] |
| CCCc1nc2ccccc2c(=O)n1/N=C/c1c(C)[nH]n(-c2ccc(C)cc2)c1=O | inconclusive: 35.5 µM [inhibitor, single point] |
| O=C(Nc1ccccc1C(=O)NCc1cccnc1)c1ccco1 | inactive |
| c1ccc(-c2nnc(SCc3nc4ccccc4[nH]3)n2Cc2ccco2)cc1 | inactive |
| Cc1cc(/C([O-])=C(/C(=S)Nc2ccccc2)[n+]2ccccc2)c(C)n1-c1ccccc1 | inactive |
| COc1ccccc1-c1cn[nH]c1-c1ccc(OCc2ccccc2)cc1O | inconclusive: 35.5 µM [inhibitor, single point] |
| COc1cc(NC(=O)c2cccc([N+](=O)[O-])c2C)ccc1NC(=O)c1ccco1 | inconclusive: 35.5 µM [inhibitor, single point] |
